The record followed here is paper PMC6599804, “N^ɛ-acetyl lysine derivatives with zinc binding groups as novel HDAC inhibitors” (Royal Society Open Science, 2019).

Structures are written as SMILES.

In test [1] the test system is HDACⅡa. Put plainly: HDAC subtype selectivity assay with subtype substrate, HDACⅡa. The test is classed as biochemical, human. The following applies: 1μM; Hela nuclear extract; substrate of corresponding subtype. An excerpt: against both tumor cells and normal cells, then calculate and compare their selective index.” […]
of Supporting Information.
Reponses to Reviewer 2’s comments
Reviewer 2 is also very positive about the manuscript. We thank the reviewer for the helpful comments and careful reading of the manuscript. Our changes and/or responses are detailed below.
Comment 1: “Should add some discussion about whether the synthesized compounds intend to be pan- or specific- HDAC inhibitors.”
S1 of Supporting Information.
Comment 2: “ The cellular data is just described for the acetylation level of tubulin which is only relevant […]
And then incubation at 37℃ for 1h, the mixture was stopped by the addition of 50 μL of Buffer B (200mM HCl/300 mM Acetic acid), fluorescence intensity was measured using a microplate reader at excitation and emission wavelengths of 360 nm and 460 nm. The inhibition ratios were calculated from the fluorescence intensity readings of tested wells relative to those of control wells, […]
The rate of cell survival under the action of test substances was evaluated by an improved MTS assay as previously described. […]
(§1) 48 hours 5ul of MTS reagent solution was added into each well and the cells were incubated for another 4 hours at 37℃ under 5% CO2 environment. The absorbance was measured at 490 nm in […]

Test [2] has as its system K562 cells. Put plainly: MTS cell proliferation assay, K562. The settings on record: Homo sapiens, K562, 48 h, read-out: IC50 K562. Format: cell-based. Here is the method:
(§2) Because of the great anti-tumour potential of HDAC inhibitors, we did the antiproliferative evaluation of 18c against K562 cells, A549 cells and HepG2 cells using MTS assay as previously described. […]
(§3) The rate of cell survival under the action of test substances was evaluated by an improved MTS assay as previously described. In brief, A549 (5000 cells / well) , HepG2 (5000 cells / well), HEK293 (5000 cells / well) and K562 (1 ×10^4 cells/well) cell lines were seeded into 96-well plates in 100 µL medium. After overnight incubation, each well was added with different […]
as §1
(§4) a Microplate to determine the cell viability. The absorbance was directly proportional to the number of viable cells. All experiments were done in triplicate. […]
(§5) calculate and compare their selective index. […]
(§6) Unbound antibodies
For orientation: Formazan colour is commonly taken as a measure of viable cells.

For test [3], the system named is A549 cells. The test is described as follows: MTS cell proliferation assay, A549. Format: cell-based. The following applies: Homo sapiens, A549, 48 h, read-out: IC50 A549. Here is the method: as §2, §3, §1, §4, §5, §6
For test [4], the system named is HepG2 cells. The test is described as follows: MTS cell proliferation assay, HepG2. The following applies: Homo sapiens, HepG2, 48 h, read-out: IC50 HepG2. Format: cell-based. Here is the method:
as §2, §3, §1, §4, §5, §6

Test [5] deals with HEK293. The test is described as follows: MTS cell proliferation assay, HEK293 (non-cancerous kidney cell). The test is classed as cell-based. The settings on record: Homo sapiens, HEK293, 48 h, read-out: IC50 HEK293. Here is the method: as §2, §3, §1, §4, §5, §6

One may read the IC50 as the concentration that inhibits the measured activity by half. As to `O=C(CCCCCCC(=O)Nc1ccccc1)NO` [SAHA (1), Vorinostat, reference compound], the “HDAC Inhibition (%) HDACⅡa” value in test [1] stood at 15.51±3.084%. The IC50 came to 4.58 ± 0.17 µM in test [2], 17.8 ± 1.25 µM in test [3], 4.23 ± 0.63 µM in test [4] and 6.09 ± 0.84 µM in test [5].
